The exact form of at least one protein or probe is not confirmed. For some assays here: Weaker means in comparison with the reference protein, sequence or condition of that experiment.
What was measured:
CypA (Homo sapiens) = CypA (Homo sapiens) (UniProt P62937); assay: ITC; details: binary, lowest dsDNA affinity, value in Table S4 not in material; ITC: 50 mM potassium phosphate pH 7.4, 15 °C (25 °C with CypA); recombinant protein; protein details: N-terminal His6
[1] = molecular target: AIFΔ101 WT (Homo sapiens) (UniProt O95831); assay: ITC; details: Kd dsDNA from cooperativity fit, H2AX titrated into AIF:dsDNA, alpha 2.7, printed Ka 0.1 /uM; ITC: 50 mM potassium phosphate pH 7.4, 15 °C (25 °C with CypA); recombinant protein; residues 102-613; protein details: N-terminal His6

Sequences of proteins named here, by UniProt entry; tags and fusion partners are left off. A change or cut given only in a name is not applied to a line headed by its entry. Residues count along the entry.
UniProt P62937: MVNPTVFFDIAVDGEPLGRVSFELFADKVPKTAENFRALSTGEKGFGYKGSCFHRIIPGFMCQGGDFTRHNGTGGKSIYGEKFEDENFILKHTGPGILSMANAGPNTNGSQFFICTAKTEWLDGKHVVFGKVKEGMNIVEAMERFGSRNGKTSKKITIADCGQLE
UniProt O95831, 102-613, stated change not applied: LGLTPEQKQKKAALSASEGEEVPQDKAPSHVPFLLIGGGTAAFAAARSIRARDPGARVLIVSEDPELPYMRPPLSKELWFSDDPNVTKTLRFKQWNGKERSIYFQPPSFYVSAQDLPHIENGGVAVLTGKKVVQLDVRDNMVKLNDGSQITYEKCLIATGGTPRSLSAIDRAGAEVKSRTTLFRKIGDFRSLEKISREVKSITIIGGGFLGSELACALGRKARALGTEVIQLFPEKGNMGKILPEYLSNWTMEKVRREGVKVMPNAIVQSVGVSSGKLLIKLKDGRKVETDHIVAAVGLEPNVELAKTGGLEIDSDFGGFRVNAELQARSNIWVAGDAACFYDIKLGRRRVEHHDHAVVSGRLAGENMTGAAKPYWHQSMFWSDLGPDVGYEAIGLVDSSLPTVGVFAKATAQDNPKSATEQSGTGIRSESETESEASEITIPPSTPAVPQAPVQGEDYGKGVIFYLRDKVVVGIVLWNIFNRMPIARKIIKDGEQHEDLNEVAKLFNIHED

Sequence: GGTTAGTTATGCGCG (double strand) [15-bp dsDNA]
- binding result (CypA (Homo sapiens)): binds more weakly
- Kd [1]: 9.8 µM

— paper PMC9944232
